Laboratory results: article PMC6609682
These are yes or no findings as the source states them, for the method shown. Binding seen in cells or lysates may run through a third protein. Some results given as binding are weak or reduced against the parent protein; the word gives no strength.

By UniProt entry, the sequences of proteins in these tests, tags left out.
UniProt Q13485: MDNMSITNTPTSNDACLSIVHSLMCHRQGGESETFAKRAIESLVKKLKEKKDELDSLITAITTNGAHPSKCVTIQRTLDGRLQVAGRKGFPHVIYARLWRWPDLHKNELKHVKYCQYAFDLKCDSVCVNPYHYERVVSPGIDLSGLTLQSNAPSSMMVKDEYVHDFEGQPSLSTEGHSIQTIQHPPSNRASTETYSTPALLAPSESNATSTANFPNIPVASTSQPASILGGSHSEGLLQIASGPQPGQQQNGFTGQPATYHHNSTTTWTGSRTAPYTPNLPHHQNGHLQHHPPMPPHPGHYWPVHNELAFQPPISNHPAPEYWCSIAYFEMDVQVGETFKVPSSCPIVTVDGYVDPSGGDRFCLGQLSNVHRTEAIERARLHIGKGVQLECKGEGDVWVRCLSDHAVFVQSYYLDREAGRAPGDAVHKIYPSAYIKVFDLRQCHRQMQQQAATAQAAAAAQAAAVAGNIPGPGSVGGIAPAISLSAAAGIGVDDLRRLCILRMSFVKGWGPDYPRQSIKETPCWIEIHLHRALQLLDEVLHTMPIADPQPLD
UniProt Q01628: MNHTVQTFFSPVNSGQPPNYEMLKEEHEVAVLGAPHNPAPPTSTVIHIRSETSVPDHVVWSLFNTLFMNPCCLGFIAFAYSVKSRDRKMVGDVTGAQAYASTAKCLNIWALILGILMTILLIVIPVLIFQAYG

Target: Smad4, HA-tagged (human (by the printed RefSeq NM_005359.5; not said in words)) (UniProt Q13485)
Experiment: co-IP; HEK293T cells co-transfected with FLAG-IFITM3 and Smad4-HA; lysis buffer 20 mM MOPS pH 7.5, 0.15 M NaCl, 0.5% CHAPS, 1 mM EDTA, 1 mM DTT, protease inhibitors; anti-FLAG M2 or anti-HA with Magne Protein G beads; Western blot; with or without additional TGF-β stimulation

Interferon-inducible Transmembrane Protein 3 (IFITM3), FLAG-tagged (from UniProt Q01628 1-133)
binding: binds
